Among the test systems are VAMP2 (human); VAMP5 (human); VENTX (human); VPS25 (human); VPS28 (human); VPS29 (human); VPS33B (human); VPS36 (human); VPS37A (human).
Assay in all cases: protein microarray (ProtoArray v5.0), streptavidin-Alexa Fluor 647
Holding throughout (conditions): 3'-biotin; 20 mM Tris (pH 7.5), 5 mM MgCl2, 100 mM KCl, 0.1% Tween-20, A/T-rich and random oligonucleotide blockers; temperature not stated; high values mean tight binding

The target in the next assay is T1, VANGL1 (UniProt Q8TAA9).
T1 sequence: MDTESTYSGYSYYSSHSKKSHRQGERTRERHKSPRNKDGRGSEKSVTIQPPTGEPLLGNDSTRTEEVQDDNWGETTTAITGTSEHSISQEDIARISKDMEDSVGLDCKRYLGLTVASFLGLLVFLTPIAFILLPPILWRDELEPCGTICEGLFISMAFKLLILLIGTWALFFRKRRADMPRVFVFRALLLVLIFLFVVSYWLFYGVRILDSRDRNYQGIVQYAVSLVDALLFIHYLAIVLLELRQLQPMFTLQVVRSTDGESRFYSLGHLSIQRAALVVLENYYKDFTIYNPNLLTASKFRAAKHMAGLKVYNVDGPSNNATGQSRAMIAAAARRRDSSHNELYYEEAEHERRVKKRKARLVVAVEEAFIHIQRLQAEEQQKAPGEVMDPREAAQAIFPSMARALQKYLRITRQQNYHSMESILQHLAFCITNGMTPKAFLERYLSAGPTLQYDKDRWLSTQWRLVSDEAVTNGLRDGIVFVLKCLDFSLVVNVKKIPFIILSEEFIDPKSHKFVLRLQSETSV

This is one part of the list. For some of these results: Construct or isoform of the protein are uncertain.

Regarding “GGGGACAGGGGTATGGGGAGGGG [G4-3 biotinylated (CtG)]”, the binding signal in the assay with VAMP2 (human) is -0.299 z-score; in the assay with VAMP5 (human), -0.32 z-score; in the assay with VANGL1, -0.312 z-score; in the assay on VENTX (human), -0.3 z-score; with VPS25 (human), -0.35 z-score; in the assay on VPS28 (human), -0.344 z-score. In addition, the binding signal was -0.318 z-score with VPS29 (human), -0.301 z-score with VPS33B (human), -0.337 z-score with VPS36 (human) and -0.331 z-score in the assay with VPS37A (human).

Source of the values: paper PMC5996148.
